This test concerns the target 6xHis-tagged RBD_(ROCK1) (UniProt Q13464). The test is described as follows: BLI; BLItz instrument; His-tagged protein loaded on Ni-NTA biosensor for 90 s; association and dissociation 120 s; three concentrations; both purified. In general terms: Biolayer interferometry detects binding as a change in optical thickness at a sensor tip.

Amino acid sequences for entries named in this document (tags omitted). A change or cut given only in a name is not applied to a line headed by its entry. Residues count along the entry.
UniProt Q13464, residues 934-1015: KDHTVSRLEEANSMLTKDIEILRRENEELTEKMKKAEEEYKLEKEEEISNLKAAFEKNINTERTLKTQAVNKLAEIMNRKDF
UniProt P61586: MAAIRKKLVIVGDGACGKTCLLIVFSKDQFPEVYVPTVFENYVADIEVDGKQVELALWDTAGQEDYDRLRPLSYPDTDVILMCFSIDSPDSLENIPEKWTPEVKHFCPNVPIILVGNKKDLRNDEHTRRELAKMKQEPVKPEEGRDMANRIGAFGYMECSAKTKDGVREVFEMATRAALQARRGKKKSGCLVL

These are yes or no findings as the source states them, for the method shown. Some results given as binding are weak or reduced against the parent protein; the word gives no strength.

Take “GST-tagged RhoA (Q63L) (from UniProt P61586 1-193)”: the binding result is reported as “binds”.

Values taken from paper PMC12579213.
